This note sets out measurements from PMC9377798.

The chains behind the UniProt entries cited, without tags or fusion partners.
UniProt Q99LZ3: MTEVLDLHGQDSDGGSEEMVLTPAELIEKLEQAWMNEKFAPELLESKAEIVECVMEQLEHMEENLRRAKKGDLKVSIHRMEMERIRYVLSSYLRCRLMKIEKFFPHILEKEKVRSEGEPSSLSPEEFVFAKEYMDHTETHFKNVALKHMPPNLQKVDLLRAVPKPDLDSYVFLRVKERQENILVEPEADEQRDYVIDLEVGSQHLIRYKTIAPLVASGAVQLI
UniProt Q61881: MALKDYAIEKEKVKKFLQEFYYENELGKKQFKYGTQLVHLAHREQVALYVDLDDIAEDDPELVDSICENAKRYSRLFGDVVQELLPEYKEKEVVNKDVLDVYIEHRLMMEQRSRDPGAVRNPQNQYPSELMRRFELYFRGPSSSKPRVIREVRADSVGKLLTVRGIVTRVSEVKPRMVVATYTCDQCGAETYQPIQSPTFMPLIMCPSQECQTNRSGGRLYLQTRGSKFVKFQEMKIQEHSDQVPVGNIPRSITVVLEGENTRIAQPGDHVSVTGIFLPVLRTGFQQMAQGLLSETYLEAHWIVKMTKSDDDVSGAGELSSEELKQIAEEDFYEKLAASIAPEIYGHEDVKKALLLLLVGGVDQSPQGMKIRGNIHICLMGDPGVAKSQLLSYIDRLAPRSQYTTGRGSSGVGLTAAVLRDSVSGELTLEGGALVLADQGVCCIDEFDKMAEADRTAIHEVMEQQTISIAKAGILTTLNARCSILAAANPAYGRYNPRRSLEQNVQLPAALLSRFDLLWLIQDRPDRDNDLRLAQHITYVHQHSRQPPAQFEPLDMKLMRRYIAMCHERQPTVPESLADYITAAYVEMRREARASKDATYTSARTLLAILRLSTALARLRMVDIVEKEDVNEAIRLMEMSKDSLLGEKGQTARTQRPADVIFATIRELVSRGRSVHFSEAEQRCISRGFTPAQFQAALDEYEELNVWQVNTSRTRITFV

In the assay the target is GFP-tagged GINS4/SLD5 (mouse) (mouse (endogenous in ES cells)) (UniProt Q99LZ3). Description: co-IP; GFP-Trap agarose on extracts of mouse ES cells expressing GFP-SLD5 (control, FAF1∆, UBXN7∆, FAF1∆ UBXN7∆; with or without 5 µM CB-5083 for 3 hr); immunoblot.

No constants are given. Whether binding was seen depends on the method and setting. In cells and extracts the contact can be indirect. Some entries that bind do so weakly or less than the wild type.

As for “ubiquitylated CMG-MCM7 (mouse) (from UniProt Q61881 1-719)”, the binding entry is “binds”.
